{"source": "patent US12648964B2", "about": "“Chimeric Tim receptors and uses thereof” (CERO THERAPEUTICS HOLDINGS, INC., priority 2020, dated 2026)", "molecules": {"B1": {"name": "pCTX247: Tim4 binding domain-CD28 transmembrane-CD28 signaling domain-CD3z signaling domain (protein)", "chain": "ETVVTEVLGHRVTLPCLYSSWSHNSNSMCWGKDQCPYSGCKEALIRTDGMRVTSRKSAKYRLQGTIPRGDVSLTILNPSESDSGVYCCRIEVPGWFNDVKINVRLNLQRASTTTHRTATTTTRRTTTTSPTTTRQMTTTPAALPTTVVTTPDLTTGTPLQMTTIAVFTTANTCLSLTPSTLPEEATGLLTPEPSKEGPILTAESETVLPSDSWSSVESTSADTVLLTSKESKVWDLPSTSHVSMWKTSDSVSSPQPGASDTAVPEQNKTTKTGQMDGIPMSMKNEMPISQFWVLVVVGGVLACYSLLVTVAFIIFWVRSKRSRLLHSDYMNMTPRRPGPTRKHYQPYAPPRDFAAYRSRVKFSRSADAPAYQQGQNQLYNELNLGRREEYDVLDKRRGRDPEMGGKPRRKNPQEGLYNELQKDKMAEAYSEIGMKGERRRGKGHDGLYQGLSTATKDTYDALHMQALPPR"}, "B2": {"name": "pCTX1107: Tim4 binding domain-CD28 signaling domain-CD3z signaling domain-TLR2 signaling domain (protein)", "chain": "ETVVTEVLGHRVTLPCLYSSWSHNSNSMCWGKDQCPYSGCKEALIRTDGMRVTSRKSAKYRLQGTIPRGDVSLTILNPSESDSGVYCCRIEVPGWFNDVKINVRLNLQRASTTTHRTATTTTRRTTTTSPTTTRQMTTTPAALPTTVVTTPDLTTGTPLQMTTIAVFTTANTCLSLTPSTLPEEATGLLTPEPSKEGPILTAESETVLPSDSWSSVESTSADTVLLTSKESKVWDLPSTSHVSMWKTSDSVSSPQPGASDTAVPEQNKTTKTGQMDGIPMSMKNEMPISQRSKRSRLLHSDYMNMTPRRPGPTRKHYQPYAPPRDFAAYRSRVKFSRSADAPAYQQGQNQLYNELNLGRREEYDVLDKRRGRDPEMGGKPRRKNPQEGLYNELQKDKMAEAYSEIGMKGERRRGKGHDGLYQGLSTATKDTYDALHMQALPPRHRFHGLWYMKMMWAWLQAKRKPRKAPSRNICYDAFVSYSERDAYWVENLMVQELENFNPPFKLCLHKRDFIPGKWIIDNIIDSIEKSHKTVFVLSENFVKSEWCKYELDFSHFRLFDENNDAAILILLEPIEKKAIPQRFCKLRKIMNTKTYLEWPMDEAQREGFWVNLRAAIKS", "modifications": "left off: large carriers"}}, "tested_on": "transduced CER T cells", "assay": "Cell surface chimeric Tim4 receptor expression on transduced T cells (anti-Tim-4 antibody 9F4, flow cytometry)", "type": "cell-based", "settings": "vs mock transduced controls", "data": [{"molecule": "B1", "values": [{"measurement": "Tim4 expression on transduced cells", "result": "Tim4 expression was observed"}]}, {"molecule": "B2", "values": [{"measurement": "Tim4 expression on transduced cells", "result": "Tim4 expression was observed"}]}]}
